Laboratory results as given in publication PMC3849077.
No constants are given. Whether binding was seen depends on the method and setting. Binding seen in cells or lysates may run through a third protein. Some entries that bind do so weakly or less than the wild type.

Target: T1, Endogenous Prickle1 (mouse brain) (mouse (endogenous in wild-type mouse brain)) (UniProt Q3U5C7)
T1 sequence: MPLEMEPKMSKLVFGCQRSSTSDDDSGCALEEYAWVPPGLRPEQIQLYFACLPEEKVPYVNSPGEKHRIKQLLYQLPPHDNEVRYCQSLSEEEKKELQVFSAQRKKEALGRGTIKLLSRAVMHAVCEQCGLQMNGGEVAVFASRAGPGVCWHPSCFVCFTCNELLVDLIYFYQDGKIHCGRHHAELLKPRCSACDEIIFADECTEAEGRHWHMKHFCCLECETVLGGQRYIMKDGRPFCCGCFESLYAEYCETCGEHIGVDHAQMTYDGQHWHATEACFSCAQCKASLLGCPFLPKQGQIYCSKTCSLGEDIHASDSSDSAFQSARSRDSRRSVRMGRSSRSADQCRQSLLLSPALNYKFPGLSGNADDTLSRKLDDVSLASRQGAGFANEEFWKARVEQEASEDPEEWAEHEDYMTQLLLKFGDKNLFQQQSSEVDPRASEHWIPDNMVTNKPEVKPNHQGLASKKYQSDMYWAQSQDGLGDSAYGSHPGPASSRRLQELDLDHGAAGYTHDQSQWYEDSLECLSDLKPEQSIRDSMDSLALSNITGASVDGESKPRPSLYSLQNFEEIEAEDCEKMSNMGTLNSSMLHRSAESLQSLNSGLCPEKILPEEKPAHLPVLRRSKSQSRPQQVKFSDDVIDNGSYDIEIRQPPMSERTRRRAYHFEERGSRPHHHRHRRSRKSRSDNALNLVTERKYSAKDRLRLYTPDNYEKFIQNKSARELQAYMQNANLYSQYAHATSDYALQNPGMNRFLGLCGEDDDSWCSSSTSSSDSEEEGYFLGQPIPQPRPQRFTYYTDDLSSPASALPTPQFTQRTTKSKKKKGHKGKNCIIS
Assay: co-IP; wild-type mouse brain lysate; protein A/G agarose beads with USIPP immune serum (anti-Prickle1 blot) or with anti-Prickle1 antibodies (anti-Synapsin I blot), overnight at 4°C; washes in NET-100 buffer

**Q.** How did the binding turn out when “Endogenous Synapsin I (mouse brain) (from UniProt O88935-2 1-706)” was run?
**A.** Its binding is “binds”.
